Values quoted from earlier work as cited in patent US9987361B1, “Compositions and method for sustained drug delivery by active transdermal technology” (Noven Pharmaceuticals, Inc., priority 2014, dated 2018).
For at least one compound, name, drawing or mass did not settle the structure.

System: microchannels
Conditions: reported in the literature; cited from earlier work

For `CC(C)n1c(/C=C/C(O)CC(O)CC(=O)O)c(-c2ccc(F)cc2)c2ccccc21` (stereo not shown) [fluvastatin], the lifetime of microchannels is given as “extend the lifetime of microchannels”.
